Measured values reported in patent publication US20210380688A1 (SHENZHEN UNIVERSITY, published 2021).
No constants are given. Whether binding was seen depends on the method and setting. Some binding calls cover weakened binding; strength is not graded here.

Amino acid sequences for entries named in this document (tags omitted). A change or cut given only in a name is not applied to a line headed by its entry. Chains listed by the source or under a name are the forms on record and can include a tag or linker. Residues count along the entry.
ROR2 extracellular protein (Q01974, residues 34-403): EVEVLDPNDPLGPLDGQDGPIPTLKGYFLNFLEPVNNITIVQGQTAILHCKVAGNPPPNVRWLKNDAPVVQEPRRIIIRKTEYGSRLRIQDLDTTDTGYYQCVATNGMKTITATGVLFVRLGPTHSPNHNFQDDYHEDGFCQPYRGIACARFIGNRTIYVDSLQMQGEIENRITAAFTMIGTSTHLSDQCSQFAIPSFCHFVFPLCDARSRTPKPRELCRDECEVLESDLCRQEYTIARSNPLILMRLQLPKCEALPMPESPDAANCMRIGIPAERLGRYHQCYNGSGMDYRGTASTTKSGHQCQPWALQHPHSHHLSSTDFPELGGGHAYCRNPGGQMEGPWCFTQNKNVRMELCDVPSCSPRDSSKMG
full length of the ROR2 protein (hROR2), flag-tagged (B1) (Q01974, form named): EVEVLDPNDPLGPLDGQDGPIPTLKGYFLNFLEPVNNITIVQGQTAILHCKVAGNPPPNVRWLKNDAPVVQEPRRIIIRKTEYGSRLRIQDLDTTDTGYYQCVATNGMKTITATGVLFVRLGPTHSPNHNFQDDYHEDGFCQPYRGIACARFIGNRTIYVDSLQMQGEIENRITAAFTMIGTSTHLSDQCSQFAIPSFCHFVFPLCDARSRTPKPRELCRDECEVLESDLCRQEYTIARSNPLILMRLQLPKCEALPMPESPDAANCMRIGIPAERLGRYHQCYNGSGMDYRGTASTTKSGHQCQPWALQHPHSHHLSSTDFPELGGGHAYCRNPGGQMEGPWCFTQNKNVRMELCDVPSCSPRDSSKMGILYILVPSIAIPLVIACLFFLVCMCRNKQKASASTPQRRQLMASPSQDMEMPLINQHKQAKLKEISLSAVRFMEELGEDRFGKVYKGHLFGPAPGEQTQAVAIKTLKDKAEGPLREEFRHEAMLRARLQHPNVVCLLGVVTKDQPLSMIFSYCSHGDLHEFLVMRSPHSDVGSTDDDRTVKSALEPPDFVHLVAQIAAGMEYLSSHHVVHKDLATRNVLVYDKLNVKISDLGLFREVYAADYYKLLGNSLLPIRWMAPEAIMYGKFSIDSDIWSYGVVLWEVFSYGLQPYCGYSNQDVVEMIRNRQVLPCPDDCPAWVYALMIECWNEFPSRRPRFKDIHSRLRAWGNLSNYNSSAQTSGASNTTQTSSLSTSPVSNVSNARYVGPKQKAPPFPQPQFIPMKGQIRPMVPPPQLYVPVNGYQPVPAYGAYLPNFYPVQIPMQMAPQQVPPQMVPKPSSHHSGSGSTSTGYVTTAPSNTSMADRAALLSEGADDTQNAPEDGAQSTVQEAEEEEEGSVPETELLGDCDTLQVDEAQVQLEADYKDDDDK
ROR2 mutant with the deletion of the d-Ig-like region, flag-tagged (B2) (Q01974, form named): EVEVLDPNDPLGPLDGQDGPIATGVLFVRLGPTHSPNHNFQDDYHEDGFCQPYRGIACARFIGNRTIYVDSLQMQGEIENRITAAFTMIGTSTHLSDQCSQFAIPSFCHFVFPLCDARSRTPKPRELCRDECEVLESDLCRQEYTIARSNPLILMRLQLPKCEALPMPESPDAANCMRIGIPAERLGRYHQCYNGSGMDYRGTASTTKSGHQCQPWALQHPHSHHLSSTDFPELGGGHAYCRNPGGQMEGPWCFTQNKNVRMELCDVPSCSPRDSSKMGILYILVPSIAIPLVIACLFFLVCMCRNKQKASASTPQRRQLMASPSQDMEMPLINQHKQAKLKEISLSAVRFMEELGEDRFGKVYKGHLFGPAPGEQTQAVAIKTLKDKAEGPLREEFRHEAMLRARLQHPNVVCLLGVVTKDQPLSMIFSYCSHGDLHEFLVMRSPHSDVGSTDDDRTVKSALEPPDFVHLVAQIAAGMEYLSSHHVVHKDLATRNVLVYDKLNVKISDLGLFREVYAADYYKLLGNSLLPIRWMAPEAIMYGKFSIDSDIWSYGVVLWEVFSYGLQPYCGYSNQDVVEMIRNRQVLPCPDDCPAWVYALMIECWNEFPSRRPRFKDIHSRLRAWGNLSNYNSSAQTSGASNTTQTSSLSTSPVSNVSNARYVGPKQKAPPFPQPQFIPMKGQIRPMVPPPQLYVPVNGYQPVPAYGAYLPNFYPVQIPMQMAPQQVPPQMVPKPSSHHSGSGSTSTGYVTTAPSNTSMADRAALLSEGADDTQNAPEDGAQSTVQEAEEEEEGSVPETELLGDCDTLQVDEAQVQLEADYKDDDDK
ROR2 mutant with the deletion of the d-CRD region, flag-tagged (B3) (Q01974, form named): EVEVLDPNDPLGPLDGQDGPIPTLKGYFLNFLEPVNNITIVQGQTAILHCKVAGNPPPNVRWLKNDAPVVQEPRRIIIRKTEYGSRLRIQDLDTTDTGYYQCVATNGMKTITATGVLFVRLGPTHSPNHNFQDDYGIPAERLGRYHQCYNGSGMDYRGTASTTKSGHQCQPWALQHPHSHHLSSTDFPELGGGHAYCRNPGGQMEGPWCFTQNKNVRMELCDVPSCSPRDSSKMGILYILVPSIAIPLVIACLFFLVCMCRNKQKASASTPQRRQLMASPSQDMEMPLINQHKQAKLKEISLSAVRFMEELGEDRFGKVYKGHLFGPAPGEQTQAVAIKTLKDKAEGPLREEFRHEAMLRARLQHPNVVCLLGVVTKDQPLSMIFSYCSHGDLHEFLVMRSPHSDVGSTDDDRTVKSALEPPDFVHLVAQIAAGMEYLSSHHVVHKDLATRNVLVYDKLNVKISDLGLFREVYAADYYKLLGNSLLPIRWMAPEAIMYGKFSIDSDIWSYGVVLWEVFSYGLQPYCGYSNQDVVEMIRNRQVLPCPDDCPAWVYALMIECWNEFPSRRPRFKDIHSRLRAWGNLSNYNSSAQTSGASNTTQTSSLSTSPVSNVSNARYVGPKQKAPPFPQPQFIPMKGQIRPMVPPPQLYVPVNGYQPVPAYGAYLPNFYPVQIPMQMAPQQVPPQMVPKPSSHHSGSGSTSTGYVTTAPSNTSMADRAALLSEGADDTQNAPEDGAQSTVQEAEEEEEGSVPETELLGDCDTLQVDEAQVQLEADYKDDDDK
ROR2 mutant with the deletion of the d-Kinase region, flag-tagged (B5) (Q01974, form named): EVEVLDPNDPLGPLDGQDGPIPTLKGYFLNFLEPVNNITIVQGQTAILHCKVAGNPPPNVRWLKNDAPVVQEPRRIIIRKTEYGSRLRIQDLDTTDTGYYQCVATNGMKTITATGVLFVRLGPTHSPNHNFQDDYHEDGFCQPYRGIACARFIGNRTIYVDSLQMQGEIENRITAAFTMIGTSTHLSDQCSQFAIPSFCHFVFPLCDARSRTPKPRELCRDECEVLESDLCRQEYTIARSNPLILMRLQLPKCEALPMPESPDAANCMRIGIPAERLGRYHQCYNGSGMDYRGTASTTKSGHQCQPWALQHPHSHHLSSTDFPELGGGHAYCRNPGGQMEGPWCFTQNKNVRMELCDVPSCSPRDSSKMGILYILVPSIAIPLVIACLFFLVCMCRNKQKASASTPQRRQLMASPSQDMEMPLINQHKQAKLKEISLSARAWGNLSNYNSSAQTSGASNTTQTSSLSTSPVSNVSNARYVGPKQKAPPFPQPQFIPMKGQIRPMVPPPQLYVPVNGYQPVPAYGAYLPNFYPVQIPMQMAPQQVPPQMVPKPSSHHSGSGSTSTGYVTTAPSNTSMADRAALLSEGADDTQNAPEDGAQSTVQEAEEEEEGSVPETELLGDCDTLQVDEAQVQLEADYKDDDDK
ROR2 mutant with the deletion of the d-S/T1 region, flag-tagged (B7) (Q01974, form named): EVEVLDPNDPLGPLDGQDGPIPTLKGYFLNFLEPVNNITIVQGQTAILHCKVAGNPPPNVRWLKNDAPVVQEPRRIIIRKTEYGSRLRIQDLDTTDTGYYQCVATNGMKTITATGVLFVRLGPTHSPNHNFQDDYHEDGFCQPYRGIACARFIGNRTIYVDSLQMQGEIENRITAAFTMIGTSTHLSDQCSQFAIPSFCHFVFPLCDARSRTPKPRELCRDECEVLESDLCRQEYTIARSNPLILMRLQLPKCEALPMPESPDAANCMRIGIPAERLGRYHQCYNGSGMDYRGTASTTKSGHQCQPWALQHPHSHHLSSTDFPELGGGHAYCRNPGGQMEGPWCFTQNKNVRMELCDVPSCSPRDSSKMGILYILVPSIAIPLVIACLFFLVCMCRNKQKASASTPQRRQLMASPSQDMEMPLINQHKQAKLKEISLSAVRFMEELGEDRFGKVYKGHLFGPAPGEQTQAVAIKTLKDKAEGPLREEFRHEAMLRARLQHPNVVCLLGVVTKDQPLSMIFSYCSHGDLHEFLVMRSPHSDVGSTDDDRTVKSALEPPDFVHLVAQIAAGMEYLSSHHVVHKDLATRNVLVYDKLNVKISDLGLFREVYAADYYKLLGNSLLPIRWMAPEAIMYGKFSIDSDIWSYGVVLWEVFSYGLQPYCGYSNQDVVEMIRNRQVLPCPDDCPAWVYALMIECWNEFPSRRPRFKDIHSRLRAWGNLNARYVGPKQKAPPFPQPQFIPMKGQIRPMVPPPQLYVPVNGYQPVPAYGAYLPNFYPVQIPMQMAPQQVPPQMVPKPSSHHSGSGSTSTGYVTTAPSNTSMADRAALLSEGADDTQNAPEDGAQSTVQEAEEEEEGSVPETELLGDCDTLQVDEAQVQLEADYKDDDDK
ROR2 mutant with the three mutations Y641, 645, and 646F, flag-tagged (B8) (Q01974, form named): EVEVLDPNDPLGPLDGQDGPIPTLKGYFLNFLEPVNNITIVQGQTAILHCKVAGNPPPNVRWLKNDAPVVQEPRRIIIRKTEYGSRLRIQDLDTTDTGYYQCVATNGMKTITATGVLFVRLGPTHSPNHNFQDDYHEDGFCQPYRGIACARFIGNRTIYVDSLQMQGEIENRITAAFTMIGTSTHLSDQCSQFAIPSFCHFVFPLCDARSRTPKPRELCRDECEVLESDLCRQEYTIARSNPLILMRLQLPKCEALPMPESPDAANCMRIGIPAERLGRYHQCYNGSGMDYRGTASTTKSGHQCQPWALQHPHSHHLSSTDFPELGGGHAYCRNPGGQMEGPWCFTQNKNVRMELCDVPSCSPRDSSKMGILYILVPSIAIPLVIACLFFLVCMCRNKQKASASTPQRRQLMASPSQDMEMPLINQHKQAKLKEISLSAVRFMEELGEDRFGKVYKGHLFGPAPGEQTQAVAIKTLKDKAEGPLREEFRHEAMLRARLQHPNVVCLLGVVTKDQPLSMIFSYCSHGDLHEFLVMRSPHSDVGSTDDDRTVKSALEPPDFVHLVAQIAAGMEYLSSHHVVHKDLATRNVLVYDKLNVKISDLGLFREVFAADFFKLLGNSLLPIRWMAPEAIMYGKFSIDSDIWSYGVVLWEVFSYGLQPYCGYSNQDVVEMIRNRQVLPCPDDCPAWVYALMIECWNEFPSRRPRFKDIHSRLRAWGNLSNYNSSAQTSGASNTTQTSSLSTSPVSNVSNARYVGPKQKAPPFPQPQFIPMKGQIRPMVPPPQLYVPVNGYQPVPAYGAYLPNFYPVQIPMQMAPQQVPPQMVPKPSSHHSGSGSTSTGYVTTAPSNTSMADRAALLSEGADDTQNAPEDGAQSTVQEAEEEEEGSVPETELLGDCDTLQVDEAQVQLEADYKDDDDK

Legend:
ROR2 protein = ROR2 protein (UniProt Q01974); experiment: ELISA, OD450 against Fab concentration
[1] = biological target: full length of the ROR2 protein (hROR2), flag-tagged (B1) (human) (UniProt Q01974); experiment: immunoprecipitation and immunoblot, lysate of 293T cells overexpressing Flag-tagged ROR2
[2] = biological target: ROR2 mutant with the deletion of the d-Ig-like region, flag-tagged (B2) (human) (UniProt Q01974); experiment: flow cytometry of 293T-R2-KO cells transfected with B2
[3] = biological target: ROR2 mutant with the deletion of the d-CRD region, flag-tagged (B3) (human) (UniProt Q01974); experiment: western blot of lysate of 293T cells transfected with B3
[4] = biological target: ROR2 mutant with the deletion of the d-Kinase region, flag-tagged (B5) (human) (UniProt Q01974); experiment: western blot of lysate of 293T cells transfected with B5
[5] = biological target: ROR2 mutant with the deletion of the d-CRD region, flag-tagged (B3) (human) (UniProt Q01974); experiment: flow cytometry of 293T-R2-KO cells transfected with B3
[6] = biological target: full length of the ROR2 protein (hROR2), flag-tagged (B1) (human) (UniProt Q01974); experiment: immunoprecipitation, overexpressed Flag-tagged ROR2
[7] = biological target: ROR2 extracellular protein (UniProt Q01974); experiment: ELISA on plate coated with ROR2 extracellular protein, OD450
[8] = biological target: ROR2 mutant with the deletion of the d-S/T1 region, flag-tagged (B7) (human) (UniProt Q01974); experiment: western blot of lysate of 293T cells transfected with B7
[9] = biological target: ROR2 mutant with the three mutations Y641, 645, and 646F, flag-tagged (B8) (human) (UniProt Q01974); experiment: western blot of lysate of 293T cells transfected with B8
[10] = biological target: full length of the ROR2 protein (hROR2), flag-tagged (B1) (human) (UniProt Q01974); experiment: western blot of lysate of 293T cells transfected with B1
[11] = biological target: ROR2 mutant with the deletion of the d-Ig-like region, flag-tagged (B2) (human) (UniProt Q01974); experiment: western blot of lysate of 293T cells transfected with B2
[12] = biological target: full length of the ROR2 protein (hROR2), flag-tagged (B1) (human) (UniProt Q01974); experiment: flow cytometry of 293T-R2-KO cells transfected with B1

Measured: binding

B1: B16 Fab antibody (Fab, V domains shown)
VH: QLQLQQSGPELVKPGASVRMSCKAAGYTFTSYLMHWVKQRPGQDLEWIGYINPYNDGTKYNEKFKDKATLTSDKSSSTVYMELSSLTSEDSAVYYCARSDVYYGVRFAYWGQGTLVTVSA
VL: DIVLTQSPAIMSASPGEKVTMTCSASSSVTYTYWYQQKPGSSPRLLIYDTSNLASGVPVRFSGSGSGTSYSLTISRMEAEDAATYYCQQWSSYPFTFGSGTKLEIK
binds: ROR2 protein

B2: B16 chimeric antibody (antibody, human IgG1, kappa, V domains shown)
VH: QLQLQQSGPELVKPGASVRMSCKAAGYTFTSYLMHWVKQRPGQDLEWIGYINPYNDGTKYNEKFKDKATLTSDKSSSTVYMELSSLTSEDSAVYYCARSDVYYGVRFAYWGQGTLVTVSA
VL: DIVLTQSPAIMSASPGEKVTMTCSASSSVTYTYWYQQKPGSSPRLLIYDTSNLASGVPVRFSGSGSGTSYSLTISRMEAEDAATYYCQQWSSYPFTFGSGTKLEIKR
notes: also called anti-ROR2 monoclonal antibody B16 chimeric antibody; B16 antibody
not listed: ROR2 protein
binds: all other assays above
